Measurements as given in patent US20260263391A1, “COMPOUND AND USE THEREOF” (BENETHERA (SHAOXING) BIOTECHNOLOGY CO., LTD., priority 2023, published 2026).

Experiments:
[1] = system: Psoriasis mouse model; conditions: 0.025% ointment, 200 mg applied on the back for 6 consecutive days
[2] = system: Psoriasis mouse model; conditions: more detailed dose exploration, 0.02% to 0.1% still effective
Method: Psoriasis mouse model was established by intradermal injection of recombinant […] (1 ng/20 μL PBS, per mouse per day for 4 consecutive days) into depilated mice on the back.
The calculation rule for the number of days was: the number of days will be calculated from the end of modeling, which will be recorded as Day 0, followed by Day 1, Day 2, etc.
Scoring criteria: 0 points, no symptom; 1 point, skin erythema; 2 points, scattered scurf, 3 points, diffuse dandruff, 4 points, skin sclerosis; 5 points, erythroderma or death.

| Structure (SMILES) | skin score at the end of the experiment compared with the ointment group [1] | mass concentration in the ointment with significant therapeutic effect [2] |
| --- | --- | --- |
| CCCNC[C@@H](O)COc1ccccc1C(=O)CCc1ccccc1 [Compound 3, R-propafenone] | significantly decreased | – |
| CCCNCC(O)COc1ccccc1C(=O)CCc1ccccc1 (stereo not drawn) [Compound 1, propafenone] | significantly decreased | 0.02%-0.5% |
